No constants are given. Whether binding was seen depends on the method and setting. Some binding calls cover weakened binding; strength is not graded here. Sequences can lack the tags named with a protein.
Molecular target: T1, Bfl-1 C55S (cysteine-to-serine mutant) (human) (UniProt Q16548)
T1 sequence (looked up): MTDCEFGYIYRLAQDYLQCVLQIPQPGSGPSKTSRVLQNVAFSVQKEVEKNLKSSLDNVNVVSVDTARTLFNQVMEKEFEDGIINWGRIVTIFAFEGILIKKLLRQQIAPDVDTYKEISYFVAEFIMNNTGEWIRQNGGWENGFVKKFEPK
Assay: yeast surface display, flow cytometry

binding: binds
B1: yeast-displayed Puma-BH3 (residues 132-172 of human Puma fused to Aga2p) (peptide, not shown: large carriers; small tags and cut ends)
chain: GGGGSGGGGSGGGGSQWAREIGAQLRRMADDLNAQYERRRQEEQQRHRPSPWRVLY

From patent US20190185531A1
